Results from article PMC10070233.
Results are given in words; binding and its absence hold for the method and conditions named. For part of these data: In cells and extracts the contact can be indirect. Some entries that bind do so weakly or less than the wild type. For part of these data: Where a sequence is shown, tags or fusion partners need not be part of it. Blank lines part the entries; values can stand above or below the substance they belong to.

Sequences of proteins named here, by UniProt entry; tags and fusion partners are left off. A change or cut given only in a name is not applied to a line headed by its entry. A line that says so, or that is headed by a name, gives the form on record, which may keep a tag or linker. Residues count along the entry.
UniProt P47929: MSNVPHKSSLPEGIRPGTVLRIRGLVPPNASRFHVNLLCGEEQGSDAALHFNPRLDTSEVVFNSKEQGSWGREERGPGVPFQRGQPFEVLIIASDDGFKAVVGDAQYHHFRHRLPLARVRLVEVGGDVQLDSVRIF
UniProt P09382: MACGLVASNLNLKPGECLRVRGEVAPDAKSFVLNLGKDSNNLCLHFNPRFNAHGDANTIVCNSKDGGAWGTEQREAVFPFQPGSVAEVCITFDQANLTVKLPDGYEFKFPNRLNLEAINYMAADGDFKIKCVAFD
UniProt O00214: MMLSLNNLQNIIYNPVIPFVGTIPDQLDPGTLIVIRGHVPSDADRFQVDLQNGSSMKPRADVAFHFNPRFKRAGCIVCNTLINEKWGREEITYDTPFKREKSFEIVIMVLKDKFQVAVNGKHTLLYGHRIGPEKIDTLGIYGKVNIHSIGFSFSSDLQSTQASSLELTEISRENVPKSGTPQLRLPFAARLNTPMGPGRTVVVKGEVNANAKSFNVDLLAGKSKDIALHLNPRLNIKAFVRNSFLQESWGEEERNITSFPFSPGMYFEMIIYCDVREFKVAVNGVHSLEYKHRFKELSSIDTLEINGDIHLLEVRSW
UniProt P11362: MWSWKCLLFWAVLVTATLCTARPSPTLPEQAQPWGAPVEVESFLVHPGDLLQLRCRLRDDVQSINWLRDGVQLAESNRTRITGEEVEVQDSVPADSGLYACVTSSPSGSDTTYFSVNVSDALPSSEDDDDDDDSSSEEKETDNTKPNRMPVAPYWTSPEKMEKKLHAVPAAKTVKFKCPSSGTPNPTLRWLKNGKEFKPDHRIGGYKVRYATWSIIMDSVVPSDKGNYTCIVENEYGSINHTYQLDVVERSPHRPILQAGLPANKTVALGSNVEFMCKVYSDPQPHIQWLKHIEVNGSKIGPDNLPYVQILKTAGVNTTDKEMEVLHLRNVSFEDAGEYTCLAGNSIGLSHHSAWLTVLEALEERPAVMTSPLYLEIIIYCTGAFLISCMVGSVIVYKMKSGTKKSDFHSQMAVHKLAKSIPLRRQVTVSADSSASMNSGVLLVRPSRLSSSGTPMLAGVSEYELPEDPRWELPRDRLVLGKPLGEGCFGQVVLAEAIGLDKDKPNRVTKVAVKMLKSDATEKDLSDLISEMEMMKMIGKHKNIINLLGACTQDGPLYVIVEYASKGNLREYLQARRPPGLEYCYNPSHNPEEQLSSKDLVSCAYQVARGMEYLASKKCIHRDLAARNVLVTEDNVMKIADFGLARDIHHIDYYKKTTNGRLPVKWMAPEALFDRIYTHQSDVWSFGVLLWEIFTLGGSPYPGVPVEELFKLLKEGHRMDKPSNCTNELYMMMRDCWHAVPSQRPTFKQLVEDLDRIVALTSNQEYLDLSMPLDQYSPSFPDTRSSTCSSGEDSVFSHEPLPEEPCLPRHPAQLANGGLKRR
extracellular region of FGFR1 fused to the Fc fragment of human IgG1: residues 22-376 of P11362
UniProt P17931: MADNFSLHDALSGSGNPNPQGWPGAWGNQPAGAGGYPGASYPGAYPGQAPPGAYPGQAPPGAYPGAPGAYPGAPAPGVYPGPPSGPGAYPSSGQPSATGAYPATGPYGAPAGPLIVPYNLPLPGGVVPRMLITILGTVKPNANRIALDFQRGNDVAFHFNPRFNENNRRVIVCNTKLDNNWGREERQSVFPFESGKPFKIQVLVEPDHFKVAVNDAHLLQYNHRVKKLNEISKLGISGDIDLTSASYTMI
UniProt P22607: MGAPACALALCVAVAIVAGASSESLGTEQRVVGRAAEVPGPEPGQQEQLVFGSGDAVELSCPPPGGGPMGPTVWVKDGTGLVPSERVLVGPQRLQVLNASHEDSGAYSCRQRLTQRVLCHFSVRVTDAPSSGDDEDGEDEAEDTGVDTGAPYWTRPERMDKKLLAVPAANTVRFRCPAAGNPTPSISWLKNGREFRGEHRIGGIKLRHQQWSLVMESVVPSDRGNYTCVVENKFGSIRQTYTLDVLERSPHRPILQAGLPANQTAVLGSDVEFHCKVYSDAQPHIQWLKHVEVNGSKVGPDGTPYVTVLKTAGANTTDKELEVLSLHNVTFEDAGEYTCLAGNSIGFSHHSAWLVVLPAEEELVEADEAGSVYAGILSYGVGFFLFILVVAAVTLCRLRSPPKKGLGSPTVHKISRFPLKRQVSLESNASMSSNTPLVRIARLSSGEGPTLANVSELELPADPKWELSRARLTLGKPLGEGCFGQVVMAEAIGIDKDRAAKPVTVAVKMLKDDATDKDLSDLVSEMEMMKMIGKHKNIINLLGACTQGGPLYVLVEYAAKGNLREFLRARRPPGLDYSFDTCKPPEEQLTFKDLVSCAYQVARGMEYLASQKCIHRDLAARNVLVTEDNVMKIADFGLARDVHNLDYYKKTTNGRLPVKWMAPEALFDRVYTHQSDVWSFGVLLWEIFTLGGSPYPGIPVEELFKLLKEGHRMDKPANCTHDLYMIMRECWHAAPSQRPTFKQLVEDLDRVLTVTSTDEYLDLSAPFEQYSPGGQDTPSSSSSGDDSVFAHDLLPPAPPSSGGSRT
UniProt P21802: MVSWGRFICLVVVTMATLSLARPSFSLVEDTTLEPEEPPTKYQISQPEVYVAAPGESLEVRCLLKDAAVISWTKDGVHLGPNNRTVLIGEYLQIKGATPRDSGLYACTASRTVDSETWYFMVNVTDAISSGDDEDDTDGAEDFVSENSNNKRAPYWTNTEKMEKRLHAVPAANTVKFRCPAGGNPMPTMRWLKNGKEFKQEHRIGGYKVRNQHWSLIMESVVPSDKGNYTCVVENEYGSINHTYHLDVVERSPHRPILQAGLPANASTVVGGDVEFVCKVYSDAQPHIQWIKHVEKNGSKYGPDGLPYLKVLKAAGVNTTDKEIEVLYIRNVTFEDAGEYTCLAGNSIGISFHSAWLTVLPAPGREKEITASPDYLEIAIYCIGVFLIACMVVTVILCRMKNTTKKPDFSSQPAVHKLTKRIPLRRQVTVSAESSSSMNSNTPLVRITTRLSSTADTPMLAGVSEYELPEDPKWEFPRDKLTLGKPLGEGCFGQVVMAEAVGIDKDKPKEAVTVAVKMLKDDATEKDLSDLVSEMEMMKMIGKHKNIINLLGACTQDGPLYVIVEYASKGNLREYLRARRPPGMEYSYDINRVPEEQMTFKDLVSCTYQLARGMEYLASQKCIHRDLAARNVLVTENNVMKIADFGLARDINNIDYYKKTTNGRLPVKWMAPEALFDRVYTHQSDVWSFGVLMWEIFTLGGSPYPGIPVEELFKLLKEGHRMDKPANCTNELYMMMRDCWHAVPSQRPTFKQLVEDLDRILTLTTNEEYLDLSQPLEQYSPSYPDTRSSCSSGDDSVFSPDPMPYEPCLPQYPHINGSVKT

Columns and labels:
galectin-7 (human) [1] = target: galectin-7 (human) (UniProt P47929); experiment: pull-down; purified His-tagged galectins (10-50 μg) bound to Ni-NTA resin, incubated with clarified cell lysate for 1 h at 4 °C in lysis buffer (50 mM Tris, 150 mM NaCl, 1 mM EDTA, 0.1% Nonidet P-40, pH 8.0); western blotting for FGFRs; only the target purified
galectin-1 (human) [2] = target: galectin-1 (human) (UniProt P09382); experiment: as above
galectin-8 (human) [3] = target: galectin-8 (human) (UniProt O00214); experiment: as above
[4] = target: extracellular region of FGFR1 fused to the Fc fragment of human IgG1 (human) (UniProt P11362); experiment: BLI; Octet RED K2; FGFR-Fc variants or Fc (25 μg/mL) immobilised in PBS on Protein-A sensors in a pairwise manner; galectins in solution (50 μg/mL); both purified
galectin-2 (human) [5] = target: T1, galectin-2 (human) (UniProt P05162); experiment: far-Western, overlay or dot blot; galectin array: recombinant galectins (0.5 pmol) dot-blotted on PVDF, blocked with 3% BSA, incubated with FGFRs-Fc or Fc (0.9 pM) overnight; detection with anti-Fc mAb-HRP and chemiluminescence; both purified
T1 sequence: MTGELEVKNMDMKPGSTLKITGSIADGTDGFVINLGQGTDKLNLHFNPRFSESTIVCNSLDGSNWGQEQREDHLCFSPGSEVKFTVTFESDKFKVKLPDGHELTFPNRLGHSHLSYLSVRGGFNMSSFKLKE

galectin-3 (human) [6] = target: galectin-3 (human) (UniProt P17931); experiment: as above
galectin-7 (human) [7] = target: galectin-7 (human) (UniProt P47929); experiment: as above
galectin-1 (human) [8] = target: galectin-1 (human) (UniProt P09382); experiment: as above
galectin-10 (human) = target: T2, galectin-10 (human) (UniProt Q05315); experiment: as above
T2 sequence: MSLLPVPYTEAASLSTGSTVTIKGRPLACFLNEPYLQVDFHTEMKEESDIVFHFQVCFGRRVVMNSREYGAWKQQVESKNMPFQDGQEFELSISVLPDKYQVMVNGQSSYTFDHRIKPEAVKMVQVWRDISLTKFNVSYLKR

galectin-14 (human) = target: T3, galectin-14 (human) (UniProt Q8TCE9); experiment: as above
T3 sequence: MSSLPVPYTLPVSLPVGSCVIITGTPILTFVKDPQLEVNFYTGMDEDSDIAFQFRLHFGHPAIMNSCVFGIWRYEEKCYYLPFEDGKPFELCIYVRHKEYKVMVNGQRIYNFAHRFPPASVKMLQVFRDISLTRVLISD

galectin-8 (human) [9] = target: galectin-8 (human) (UniProt O00214); experiment: as above
galectin-2 (human) [10] = target: T1, galectin-2 (human); experiment: pull-down; purified His-tagged galectins (10-50 μg) bound to Ni-NTA resin, incubated with clarified cell lysate for 1 h at 4 °C in lysis buffer (50 mM Tris, 150 mM NaCl, 1 mM EDTA, 0.1% Nonidet P-40, pH 8.0); western blotting for FGFRs; only the target purified
galectin-3 (human) [11] = target: galectin-3 (human) (UniProt P17931); experiment: as above
[12] = target: T4, extracellular region of FGFR4 fused to the Fc fragment of human IgG1 (human) (UniProt P22455); experiment: BLI; Octet RED K2; FGFR-Fc variants or Fc (25 μg/mL) immobilised in PBS on Protein-A sensors in a pairwise manner; galectins in solution (50 μg/mL); both purified
T4 sequence (chain, N-glycosylated (five putative N-glycosylation sites)): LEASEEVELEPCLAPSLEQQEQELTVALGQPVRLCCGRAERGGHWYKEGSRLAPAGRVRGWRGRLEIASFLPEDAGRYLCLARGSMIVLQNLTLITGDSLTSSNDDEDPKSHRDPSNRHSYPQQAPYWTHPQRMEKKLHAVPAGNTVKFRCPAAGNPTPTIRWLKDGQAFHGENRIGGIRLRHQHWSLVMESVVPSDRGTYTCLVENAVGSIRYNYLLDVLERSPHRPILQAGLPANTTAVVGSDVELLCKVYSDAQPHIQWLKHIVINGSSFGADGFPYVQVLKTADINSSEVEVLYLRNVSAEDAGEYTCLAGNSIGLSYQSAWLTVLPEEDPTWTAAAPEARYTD

[13] = target: extracellular region of FGFR3 fused to the Fc fragment of human IgG1 (human) (UniProt P22607); experiment: as above
[14] = target: extracellular region of FGFR2 fused to the Fc fragment of human IgG1 (human) (UniProt P21802); experiment: as above
[15] = target: extracellular region of FGFR1 fused to the Fc fragment of human IgG1 (human) (UniProt P11362); experiment: dynamic light scattering; DynaPro NanoStar; FGFR1-Fc (1 mg/mL), gal-1, gal-3, gal-7 (1 mg/mL), gal-8 (0.5 mg/mL) and their mixtures, 10 min at RT before measurement; 20 °C, PBS; both purified
[16] = target: extracellular region of FGFR1 fused to the Fc fragment of human IgG1 (human) (UniProt P11362); experiment: BLI; FGFR1-Fc on Protein-A sensors, galectins in solution, in the presence of 25 mM mannose; both purified

Substance: FGFR1 expressed by a panel of human cell lines (JIMT-1, G292, DMS114) (from UniProt P11362 22-822) (receptor)
binding (galectin-7 (human) [1]): binds
binding (galectin-1 (human) [2]): binds
binding (galectin-8 (human) [3]): binds

Substance: extracellular region of FGFR3 fused to the Fc fragment of human IgG1 (from UniProt P22607 23-375) (Fc fusion)
binding (galectin-2 (human) [5]): binds
binding (galectin-3 (human) [6]): binds
binding (galectin-7 (human) [7]): binds
binding (galectin-1 (human) [8]): binds
binding (galectin-10 (human)): binds
binding (galectin-8 (human) [9]): binds
binding (galectin-14 (human)): binds

Substance: extracellular region of FGFR4 fused to the Fc fragment of human IgG1 (from UniProt P22455 22-369) (Fc fusion)
binding (galectin-2 (human) [5]): binds
binding (galectin-3 (human) [6]): binds
binding (galectin-7 (human) [7]): binds
binding (galectin-1 (human) [8]): binds
binding (galectin-10 (human)): binds
binding (galectin-8 (human) [9]): binds
binding (galectin-14 (human)): binds

Substance: full-length FGFR2 in U2OS cells stably transfected with FGFR2 (from UniProt P21802 22-821) (receptor)
binding (galectin-3 (human) [11]): binds
binding (galectin-7 (human) [1]): binds
binding (galectin-8 (human) [3]): binds

Substance: full-length FGFR3 in U2OS cells stably transfected with FGFR3 (from UniProt P22607 23-806) (receptor)
binding (galectin-3 (human) [11]): binds
binding (galectin-7 (human) [1]): binds
binding (galectin-1 (human) [2]): binds
binding (galectin-8 (human) [3]): binds

Substance: full-length FGFR4 in U2OS cells stably transfected with FGFR4 (from UniProt P22455 22-802) (receptor)
binding (galectin-3 (human) [11]): binds
binding (galectin-7 (human) [1]): binds
binding (galectin-1 (human) [2]): binds
binding (galectin-8 (human) [3]): binds

Substance: galectin-7 (from UniProt P47929 1-136)
binding [12]: binds
binding [4]: binds
binding [13]: binds
binding [14]: binds
binding [15]: binds
binding [16]: binds

Further lines, results first:

binding [4]: binds
Substance: N-terminal carbohydrate recognition domain of galectin-8 fused to the AviTag (from UniProt O00214 1-152) (domain or fragment)

binding (galectin-2 (human) [5]): binds
binding (galectin-3 (human) [6]): binds
binding (galectin-7 (human) [7]): binds
binding (galectin-1 (human) [8]): binds
binding (galectin-10 (human)): binds
binding (galectin-14 (human)): binds
Substance: extracellular region of FGFR2 fused to the Fc fragment of human IgG1 (from UniProt P21802 22-377) (Fc fusion)

binding (galectin-2 (human) [10]): binds weakly
binding (galectin-7 (human) [1]): binds
binding (galectin-1 (human) [2]): binds
binding (galectin-8 (human) [3]): binds
Substance: full-length FGFR1 in U2OS cells stably transfected with FGFR1 (from UniProt P11362 22-822) (receptor)

binding [12]: binds
binding [4]: binds
binding [13]: binds
binding [14]: binds
binding [15]: binds
binding [16]: binds
Substance: galectin-1 (from UniProt P09382 1-135)

binding [12]: binds
binding [13]: binds
binding [14]: binds
Substance: galectin-3 (from UniProt P17931 1-250)

binding [12]: binds
binding [4]: binds
binding [13]: binds
binding [14]: binds
binding [15]: binds
binding [16]: binds
Substance: galectin-8 (from UniProt O00214 1-317)
